In the assay the target is Rock1 (human (endogenous in HMECs)) (UniProt Q13464). The experiment in a line: co-IP; HMEC lysates (modified RIPA buffer with protease and phosphatase inhibitors), immunoprecipitation with antibodies to Rock1, protein G beads, Western blot; cells treated with or without LPS (24 h). On the technique in general: In western blotting, separated proteins are transferred to a membrane and probed.

Chains of the proteins cited; added tags and fusions are not shown.
UniProt Q13464: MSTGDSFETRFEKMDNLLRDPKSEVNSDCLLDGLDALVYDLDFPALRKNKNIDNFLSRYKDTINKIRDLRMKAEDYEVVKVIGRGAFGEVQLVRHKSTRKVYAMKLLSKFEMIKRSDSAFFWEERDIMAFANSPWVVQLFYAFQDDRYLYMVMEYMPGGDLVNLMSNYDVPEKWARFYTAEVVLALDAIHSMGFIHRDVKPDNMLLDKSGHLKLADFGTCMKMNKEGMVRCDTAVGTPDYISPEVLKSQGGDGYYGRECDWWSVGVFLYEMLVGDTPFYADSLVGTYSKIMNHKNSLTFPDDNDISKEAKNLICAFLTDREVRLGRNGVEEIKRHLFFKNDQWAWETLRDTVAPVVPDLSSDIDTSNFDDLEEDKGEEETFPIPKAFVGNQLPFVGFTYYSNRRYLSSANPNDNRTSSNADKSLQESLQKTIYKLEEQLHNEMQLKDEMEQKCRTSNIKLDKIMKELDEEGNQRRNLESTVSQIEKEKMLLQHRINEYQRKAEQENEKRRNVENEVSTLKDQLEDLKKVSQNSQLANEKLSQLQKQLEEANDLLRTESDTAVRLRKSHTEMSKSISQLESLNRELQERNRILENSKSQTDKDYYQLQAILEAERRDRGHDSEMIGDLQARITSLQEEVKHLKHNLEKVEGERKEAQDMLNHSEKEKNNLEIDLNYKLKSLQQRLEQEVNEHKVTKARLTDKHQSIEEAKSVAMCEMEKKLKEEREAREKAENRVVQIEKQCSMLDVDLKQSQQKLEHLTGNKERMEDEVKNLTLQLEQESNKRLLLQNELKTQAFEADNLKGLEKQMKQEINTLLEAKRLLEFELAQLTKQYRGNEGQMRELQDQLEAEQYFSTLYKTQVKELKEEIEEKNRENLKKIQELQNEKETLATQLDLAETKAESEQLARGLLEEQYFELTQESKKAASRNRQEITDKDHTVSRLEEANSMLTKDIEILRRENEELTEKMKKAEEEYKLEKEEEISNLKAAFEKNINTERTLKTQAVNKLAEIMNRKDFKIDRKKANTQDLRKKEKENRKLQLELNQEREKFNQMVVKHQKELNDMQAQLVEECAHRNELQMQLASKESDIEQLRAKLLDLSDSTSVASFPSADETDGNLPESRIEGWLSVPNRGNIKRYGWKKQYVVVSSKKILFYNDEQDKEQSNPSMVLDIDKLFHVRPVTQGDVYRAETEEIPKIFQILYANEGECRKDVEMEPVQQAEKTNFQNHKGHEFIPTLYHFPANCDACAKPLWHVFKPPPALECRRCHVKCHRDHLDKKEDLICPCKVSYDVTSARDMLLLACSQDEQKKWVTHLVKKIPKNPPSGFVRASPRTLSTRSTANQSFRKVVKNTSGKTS
UniProt P26038: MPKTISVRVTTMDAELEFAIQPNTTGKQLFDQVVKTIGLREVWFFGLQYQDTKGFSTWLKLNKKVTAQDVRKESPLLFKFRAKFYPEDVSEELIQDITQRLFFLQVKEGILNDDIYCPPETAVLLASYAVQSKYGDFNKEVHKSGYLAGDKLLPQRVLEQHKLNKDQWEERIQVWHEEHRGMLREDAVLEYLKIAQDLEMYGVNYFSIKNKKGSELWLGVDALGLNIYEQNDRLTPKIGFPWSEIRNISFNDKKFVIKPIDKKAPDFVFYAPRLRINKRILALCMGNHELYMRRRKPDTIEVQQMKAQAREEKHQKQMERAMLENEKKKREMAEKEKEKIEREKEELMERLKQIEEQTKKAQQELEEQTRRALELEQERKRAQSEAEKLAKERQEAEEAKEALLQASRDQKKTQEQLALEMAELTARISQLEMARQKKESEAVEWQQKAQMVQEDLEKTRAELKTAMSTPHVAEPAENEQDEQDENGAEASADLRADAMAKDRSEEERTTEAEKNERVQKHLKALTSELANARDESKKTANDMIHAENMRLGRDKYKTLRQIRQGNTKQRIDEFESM

Results are given in words; binding and its absence hold for the method and conditions named. In cells and extracts the contact can be indirect. Some binding calls cover weakened binding; strength is not graded here.

Turning to “phosphorylated moesin (p-MSN) (from UniProt P26038 1-577)”, the binding result is given as “binds”.

The record behind these values is publication PMC7896848.
